The source of these data is publication PMC5972149.

Chains of the proteins cited; added tags and fusions are not shown.
UniProt P23769: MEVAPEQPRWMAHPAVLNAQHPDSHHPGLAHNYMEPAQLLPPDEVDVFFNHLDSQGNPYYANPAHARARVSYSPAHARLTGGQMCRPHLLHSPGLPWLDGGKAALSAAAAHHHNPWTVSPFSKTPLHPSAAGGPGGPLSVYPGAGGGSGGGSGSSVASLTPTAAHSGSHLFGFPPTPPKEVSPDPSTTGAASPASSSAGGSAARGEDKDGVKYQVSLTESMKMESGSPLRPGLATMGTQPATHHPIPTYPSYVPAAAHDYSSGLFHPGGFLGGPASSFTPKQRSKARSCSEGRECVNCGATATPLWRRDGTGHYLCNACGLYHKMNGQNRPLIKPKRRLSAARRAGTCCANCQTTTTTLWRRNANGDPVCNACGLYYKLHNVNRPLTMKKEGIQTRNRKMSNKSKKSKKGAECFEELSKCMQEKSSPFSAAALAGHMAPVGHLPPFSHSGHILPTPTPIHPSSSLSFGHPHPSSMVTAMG
UniProt Q9H792: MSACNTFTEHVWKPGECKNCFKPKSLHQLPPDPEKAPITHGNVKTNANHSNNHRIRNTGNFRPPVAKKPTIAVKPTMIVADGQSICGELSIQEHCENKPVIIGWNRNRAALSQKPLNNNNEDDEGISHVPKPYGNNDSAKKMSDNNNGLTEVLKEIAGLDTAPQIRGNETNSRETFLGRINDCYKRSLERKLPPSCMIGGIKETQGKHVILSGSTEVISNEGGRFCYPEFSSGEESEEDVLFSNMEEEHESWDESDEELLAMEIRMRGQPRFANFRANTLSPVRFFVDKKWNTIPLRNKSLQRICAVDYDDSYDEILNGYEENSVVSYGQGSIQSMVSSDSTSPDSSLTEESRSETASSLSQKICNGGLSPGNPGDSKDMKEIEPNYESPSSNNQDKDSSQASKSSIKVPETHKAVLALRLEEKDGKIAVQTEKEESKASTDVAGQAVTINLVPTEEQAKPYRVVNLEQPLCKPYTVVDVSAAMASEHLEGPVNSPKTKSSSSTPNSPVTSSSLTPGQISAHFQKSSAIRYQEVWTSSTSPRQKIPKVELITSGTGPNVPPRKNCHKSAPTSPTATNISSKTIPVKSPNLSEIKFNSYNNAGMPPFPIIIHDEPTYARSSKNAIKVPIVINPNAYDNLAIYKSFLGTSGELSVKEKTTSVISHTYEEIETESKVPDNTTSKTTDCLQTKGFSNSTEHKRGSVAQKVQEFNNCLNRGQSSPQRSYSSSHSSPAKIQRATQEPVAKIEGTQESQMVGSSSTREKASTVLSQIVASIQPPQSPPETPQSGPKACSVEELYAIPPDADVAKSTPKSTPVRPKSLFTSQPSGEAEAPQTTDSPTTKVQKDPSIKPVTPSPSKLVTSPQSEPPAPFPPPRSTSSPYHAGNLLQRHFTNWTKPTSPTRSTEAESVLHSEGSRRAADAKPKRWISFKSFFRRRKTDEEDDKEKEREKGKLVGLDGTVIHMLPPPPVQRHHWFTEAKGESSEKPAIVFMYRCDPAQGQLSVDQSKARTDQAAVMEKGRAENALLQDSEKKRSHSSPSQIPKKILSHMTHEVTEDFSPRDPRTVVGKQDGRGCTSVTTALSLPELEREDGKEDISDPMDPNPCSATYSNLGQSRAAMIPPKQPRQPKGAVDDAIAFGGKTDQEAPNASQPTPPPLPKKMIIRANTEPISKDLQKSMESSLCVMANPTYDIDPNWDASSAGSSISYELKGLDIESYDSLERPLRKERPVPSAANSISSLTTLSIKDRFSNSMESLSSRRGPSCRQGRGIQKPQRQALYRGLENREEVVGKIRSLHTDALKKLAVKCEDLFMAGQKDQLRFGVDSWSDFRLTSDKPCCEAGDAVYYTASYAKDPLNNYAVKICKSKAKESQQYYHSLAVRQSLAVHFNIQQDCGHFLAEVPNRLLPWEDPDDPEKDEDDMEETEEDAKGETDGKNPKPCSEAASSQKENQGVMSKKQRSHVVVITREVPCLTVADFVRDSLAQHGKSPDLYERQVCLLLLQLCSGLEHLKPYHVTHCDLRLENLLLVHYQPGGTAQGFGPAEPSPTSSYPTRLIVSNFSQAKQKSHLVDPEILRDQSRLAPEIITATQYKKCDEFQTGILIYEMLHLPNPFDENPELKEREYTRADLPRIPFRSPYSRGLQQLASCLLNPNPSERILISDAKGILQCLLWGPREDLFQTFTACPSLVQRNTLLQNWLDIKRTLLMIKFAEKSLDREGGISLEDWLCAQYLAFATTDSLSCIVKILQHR

This experiment addresses GATA-binding protein 2 (human (endogenous in HUVEC)) (UniProt P23769). Put plainly: co-IP; HUVEC lysates (50 mM HEPES pH 7.4, 150 mM NaCl, 1% Triton X-100, 1% sodium deoxycholate, 0.1% SDS, 10% glycerol) diluted 1:1 with HNTG buffer; precipitated with mouse anti-GATA2 agarose or normal mouse IgG agarose; western blot; cells on collagen I, fibronectin or uncoated plastic dishes.

Results are given in words; binding and its absence hold for the method and conditions named. Binding seen in cells or lysates may run through a third protein. Some binding calls cover weakened binding; strength is not graded here.

For “Pseudopodium-enriched atypical tyrosine kinase 1 (from UniProt Q9H792 1-1746)”, the binding entry was “binds”.
